# In patent US20090148895:
# Tags and fusion partners may be left off the protein sequences shown.
# Molecular target: T1, Cre recombinase (UniProt P06956)
# T1 sequence (limits assumed): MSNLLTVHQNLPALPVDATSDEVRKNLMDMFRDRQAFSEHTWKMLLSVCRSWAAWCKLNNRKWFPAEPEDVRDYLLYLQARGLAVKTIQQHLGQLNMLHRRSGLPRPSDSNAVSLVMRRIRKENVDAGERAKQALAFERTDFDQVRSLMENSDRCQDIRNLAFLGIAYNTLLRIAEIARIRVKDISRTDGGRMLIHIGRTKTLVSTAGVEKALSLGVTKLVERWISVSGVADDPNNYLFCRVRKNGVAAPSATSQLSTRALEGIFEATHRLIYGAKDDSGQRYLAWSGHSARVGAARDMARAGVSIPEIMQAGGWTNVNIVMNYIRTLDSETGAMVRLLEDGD
# Assay: activity in cells
# Conditions: in S. cerevisiae chromosome 6, protein in cells, only the site is given
Sequence,"activity on this sequence (inversion between inverted loxm2 pair and about 40 kb mini chromosome by loxm2 recombination, variant of loxP)",activity on this sequence (inversion between inverted loxP pair and about 18 kb mini chromosome by loxP recombination)
ATAACTTCGTATAAGAAACCATATACGAAGTTAT (double strand) [loxm2],active,–
ATAACTTCGTATAATGTATGCTATACGAAGTTAT (double strand) [loxP],–,active
